Assay results: the supplement of paper PMC10849652
This is one part of the list.

By UniProt entry, the sequences of proteins in these tests, tags left out. Where a name states a change or a piece, a line headed by the entry shows the natural chain unless it says otherwise.
UniProt Q5JTV8: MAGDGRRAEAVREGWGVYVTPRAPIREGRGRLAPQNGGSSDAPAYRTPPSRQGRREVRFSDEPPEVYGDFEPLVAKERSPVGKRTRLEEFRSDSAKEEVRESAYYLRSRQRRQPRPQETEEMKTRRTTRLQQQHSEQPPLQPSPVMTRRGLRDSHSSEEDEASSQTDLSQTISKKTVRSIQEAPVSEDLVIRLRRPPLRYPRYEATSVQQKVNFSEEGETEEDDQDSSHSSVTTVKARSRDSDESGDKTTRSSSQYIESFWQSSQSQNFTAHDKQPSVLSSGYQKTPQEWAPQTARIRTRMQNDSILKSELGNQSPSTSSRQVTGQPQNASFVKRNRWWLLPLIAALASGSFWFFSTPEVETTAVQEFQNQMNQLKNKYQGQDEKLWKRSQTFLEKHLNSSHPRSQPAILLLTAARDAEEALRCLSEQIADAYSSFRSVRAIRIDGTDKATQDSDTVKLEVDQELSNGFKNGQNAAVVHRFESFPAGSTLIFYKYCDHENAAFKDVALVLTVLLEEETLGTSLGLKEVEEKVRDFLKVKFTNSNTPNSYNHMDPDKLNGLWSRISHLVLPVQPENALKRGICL
UniProt O00635: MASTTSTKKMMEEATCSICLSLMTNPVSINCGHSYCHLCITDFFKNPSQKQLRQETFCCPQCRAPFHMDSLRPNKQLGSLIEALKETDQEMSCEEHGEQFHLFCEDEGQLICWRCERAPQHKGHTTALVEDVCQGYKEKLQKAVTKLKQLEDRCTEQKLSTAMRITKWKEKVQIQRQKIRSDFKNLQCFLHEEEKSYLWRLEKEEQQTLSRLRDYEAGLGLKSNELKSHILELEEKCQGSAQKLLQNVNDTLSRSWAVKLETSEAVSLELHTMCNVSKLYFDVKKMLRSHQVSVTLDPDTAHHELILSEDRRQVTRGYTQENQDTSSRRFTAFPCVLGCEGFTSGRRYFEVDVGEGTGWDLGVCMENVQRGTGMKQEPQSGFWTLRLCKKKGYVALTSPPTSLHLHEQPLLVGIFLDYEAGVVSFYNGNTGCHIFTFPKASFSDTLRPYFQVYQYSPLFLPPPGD
UniProt Q9P0U1: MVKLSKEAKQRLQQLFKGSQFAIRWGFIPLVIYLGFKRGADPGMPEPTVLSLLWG
UniProt Q9UPQ9, whole entry, looked up: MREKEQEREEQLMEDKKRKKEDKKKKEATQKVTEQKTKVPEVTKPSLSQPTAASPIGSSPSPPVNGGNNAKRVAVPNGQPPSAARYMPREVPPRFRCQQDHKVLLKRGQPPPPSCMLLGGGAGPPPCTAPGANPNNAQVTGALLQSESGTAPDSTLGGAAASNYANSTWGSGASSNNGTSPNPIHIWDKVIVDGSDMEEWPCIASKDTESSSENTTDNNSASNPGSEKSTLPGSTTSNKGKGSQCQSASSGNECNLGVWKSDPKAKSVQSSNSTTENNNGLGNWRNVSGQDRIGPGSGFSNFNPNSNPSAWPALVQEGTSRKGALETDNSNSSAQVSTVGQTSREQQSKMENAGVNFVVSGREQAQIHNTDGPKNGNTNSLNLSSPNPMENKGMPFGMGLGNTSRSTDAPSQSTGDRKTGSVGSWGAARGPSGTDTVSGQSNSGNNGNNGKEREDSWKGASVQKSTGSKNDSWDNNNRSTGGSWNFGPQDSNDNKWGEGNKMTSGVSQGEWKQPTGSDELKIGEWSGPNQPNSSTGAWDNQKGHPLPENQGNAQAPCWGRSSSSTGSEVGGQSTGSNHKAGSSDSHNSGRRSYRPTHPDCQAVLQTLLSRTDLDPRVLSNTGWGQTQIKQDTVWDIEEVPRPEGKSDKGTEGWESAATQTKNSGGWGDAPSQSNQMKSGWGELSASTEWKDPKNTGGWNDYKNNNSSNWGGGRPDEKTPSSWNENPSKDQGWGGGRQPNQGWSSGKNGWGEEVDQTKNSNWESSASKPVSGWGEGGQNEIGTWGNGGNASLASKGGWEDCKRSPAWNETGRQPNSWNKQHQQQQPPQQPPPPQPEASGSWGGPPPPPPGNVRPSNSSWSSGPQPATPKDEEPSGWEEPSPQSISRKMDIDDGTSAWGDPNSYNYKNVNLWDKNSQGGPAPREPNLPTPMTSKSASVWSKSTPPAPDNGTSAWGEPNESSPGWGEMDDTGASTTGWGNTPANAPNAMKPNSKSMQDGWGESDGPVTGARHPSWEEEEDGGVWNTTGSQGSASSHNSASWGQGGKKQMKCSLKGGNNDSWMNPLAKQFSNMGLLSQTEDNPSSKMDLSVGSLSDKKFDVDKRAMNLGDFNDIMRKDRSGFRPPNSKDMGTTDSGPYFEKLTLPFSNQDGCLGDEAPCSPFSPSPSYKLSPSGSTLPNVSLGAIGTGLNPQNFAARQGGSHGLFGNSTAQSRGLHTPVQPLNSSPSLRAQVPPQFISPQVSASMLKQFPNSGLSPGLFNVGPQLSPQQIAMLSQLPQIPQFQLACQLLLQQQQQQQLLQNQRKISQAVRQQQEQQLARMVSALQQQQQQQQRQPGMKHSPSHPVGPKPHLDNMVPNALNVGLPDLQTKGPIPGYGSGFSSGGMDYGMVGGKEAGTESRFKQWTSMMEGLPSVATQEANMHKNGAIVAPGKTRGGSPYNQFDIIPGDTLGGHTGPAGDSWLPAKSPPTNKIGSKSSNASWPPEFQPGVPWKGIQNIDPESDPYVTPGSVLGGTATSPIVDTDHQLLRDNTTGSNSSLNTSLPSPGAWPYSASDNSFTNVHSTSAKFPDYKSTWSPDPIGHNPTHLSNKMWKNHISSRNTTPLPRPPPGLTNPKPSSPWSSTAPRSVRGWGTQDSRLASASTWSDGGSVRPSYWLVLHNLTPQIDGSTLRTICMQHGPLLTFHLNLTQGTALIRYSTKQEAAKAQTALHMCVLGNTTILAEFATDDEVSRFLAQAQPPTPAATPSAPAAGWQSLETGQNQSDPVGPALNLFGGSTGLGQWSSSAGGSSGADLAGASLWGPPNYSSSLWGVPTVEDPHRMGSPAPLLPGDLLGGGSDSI
UniProt A5PLN9: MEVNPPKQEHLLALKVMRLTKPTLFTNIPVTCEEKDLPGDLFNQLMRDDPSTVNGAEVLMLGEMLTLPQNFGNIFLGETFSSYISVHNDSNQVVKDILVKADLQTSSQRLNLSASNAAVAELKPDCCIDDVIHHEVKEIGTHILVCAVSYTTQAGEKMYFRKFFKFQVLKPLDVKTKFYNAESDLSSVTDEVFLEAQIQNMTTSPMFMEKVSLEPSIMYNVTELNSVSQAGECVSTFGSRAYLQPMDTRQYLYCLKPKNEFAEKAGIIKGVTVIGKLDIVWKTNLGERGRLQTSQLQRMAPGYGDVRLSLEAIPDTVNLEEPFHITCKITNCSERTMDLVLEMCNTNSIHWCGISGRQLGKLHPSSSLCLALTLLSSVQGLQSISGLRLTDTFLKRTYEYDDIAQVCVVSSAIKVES
UniProt Q8TEL6: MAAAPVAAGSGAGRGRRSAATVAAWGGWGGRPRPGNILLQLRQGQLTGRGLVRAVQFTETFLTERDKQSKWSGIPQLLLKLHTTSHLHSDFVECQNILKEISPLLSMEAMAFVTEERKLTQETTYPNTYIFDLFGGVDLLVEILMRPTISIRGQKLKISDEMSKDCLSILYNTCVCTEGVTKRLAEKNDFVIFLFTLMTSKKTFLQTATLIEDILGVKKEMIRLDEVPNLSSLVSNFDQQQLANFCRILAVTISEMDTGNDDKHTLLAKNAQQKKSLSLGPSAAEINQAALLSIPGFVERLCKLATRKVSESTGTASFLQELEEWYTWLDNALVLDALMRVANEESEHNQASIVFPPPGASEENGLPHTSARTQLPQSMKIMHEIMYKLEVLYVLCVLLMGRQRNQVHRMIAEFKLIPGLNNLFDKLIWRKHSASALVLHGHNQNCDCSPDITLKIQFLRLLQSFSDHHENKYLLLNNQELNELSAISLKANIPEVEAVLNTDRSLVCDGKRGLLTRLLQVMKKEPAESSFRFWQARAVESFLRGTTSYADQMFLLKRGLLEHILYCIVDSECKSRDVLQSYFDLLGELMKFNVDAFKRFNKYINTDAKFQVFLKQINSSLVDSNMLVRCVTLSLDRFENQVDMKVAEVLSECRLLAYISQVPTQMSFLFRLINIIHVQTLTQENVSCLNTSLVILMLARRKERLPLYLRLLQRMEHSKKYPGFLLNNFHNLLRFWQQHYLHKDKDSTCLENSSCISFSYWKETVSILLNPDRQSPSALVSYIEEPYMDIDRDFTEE
UniProt Q629K1: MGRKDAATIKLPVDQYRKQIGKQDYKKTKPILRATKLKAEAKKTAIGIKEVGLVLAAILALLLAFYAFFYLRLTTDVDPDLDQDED
UniProt O14787: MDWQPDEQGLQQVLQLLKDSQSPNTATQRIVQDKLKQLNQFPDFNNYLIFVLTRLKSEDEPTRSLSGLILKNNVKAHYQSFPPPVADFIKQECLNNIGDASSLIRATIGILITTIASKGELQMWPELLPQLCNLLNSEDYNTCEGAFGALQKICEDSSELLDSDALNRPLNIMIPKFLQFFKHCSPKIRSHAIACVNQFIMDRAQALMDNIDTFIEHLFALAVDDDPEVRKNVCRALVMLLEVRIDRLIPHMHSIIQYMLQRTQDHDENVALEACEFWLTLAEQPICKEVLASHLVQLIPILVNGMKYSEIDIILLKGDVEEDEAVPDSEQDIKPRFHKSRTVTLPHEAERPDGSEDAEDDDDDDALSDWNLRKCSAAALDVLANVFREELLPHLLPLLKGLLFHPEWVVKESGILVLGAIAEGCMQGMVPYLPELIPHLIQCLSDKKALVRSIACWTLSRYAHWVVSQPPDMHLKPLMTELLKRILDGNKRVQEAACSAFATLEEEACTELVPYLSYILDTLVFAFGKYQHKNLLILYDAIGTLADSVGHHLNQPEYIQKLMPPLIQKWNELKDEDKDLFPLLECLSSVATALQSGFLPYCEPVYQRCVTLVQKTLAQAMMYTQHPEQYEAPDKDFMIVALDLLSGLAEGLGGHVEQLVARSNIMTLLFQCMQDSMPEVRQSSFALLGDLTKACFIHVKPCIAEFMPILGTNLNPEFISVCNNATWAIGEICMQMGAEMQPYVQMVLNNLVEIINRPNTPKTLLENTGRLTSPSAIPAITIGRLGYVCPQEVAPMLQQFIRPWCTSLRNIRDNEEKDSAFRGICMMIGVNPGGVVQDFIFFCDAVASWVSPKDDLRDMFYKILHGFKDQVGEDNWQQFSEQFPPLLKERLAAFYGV
UniProt Q15642: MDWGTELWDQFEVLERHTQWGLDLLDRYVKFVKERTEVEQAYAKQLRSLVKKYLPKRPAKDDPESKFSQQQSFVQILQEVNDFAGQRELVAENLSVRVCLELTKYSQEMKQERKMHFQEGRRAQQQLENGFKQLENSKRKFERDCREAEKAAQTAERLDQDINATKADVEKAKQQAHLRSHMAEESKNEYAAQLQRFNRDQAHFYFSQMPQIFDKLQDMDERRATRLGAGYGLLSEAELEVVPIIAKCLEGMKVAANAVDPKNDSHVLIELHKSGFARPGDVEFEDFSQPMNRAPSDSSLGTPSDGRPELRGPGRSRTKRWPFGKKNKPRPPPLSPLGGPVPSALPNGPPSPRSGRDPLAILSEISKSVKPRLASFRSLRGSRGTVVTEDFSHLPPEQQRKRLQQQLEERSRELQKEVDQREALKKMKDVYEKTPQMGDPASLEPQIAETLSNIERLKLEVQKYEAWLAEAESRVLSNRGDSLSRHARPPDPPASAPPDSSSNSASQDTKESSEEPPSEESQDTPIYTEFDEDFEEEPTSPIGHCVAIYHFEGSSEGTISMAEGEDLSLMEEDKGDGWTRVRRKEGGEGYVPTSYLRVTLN
UniProt O43617, whole entry, looked up: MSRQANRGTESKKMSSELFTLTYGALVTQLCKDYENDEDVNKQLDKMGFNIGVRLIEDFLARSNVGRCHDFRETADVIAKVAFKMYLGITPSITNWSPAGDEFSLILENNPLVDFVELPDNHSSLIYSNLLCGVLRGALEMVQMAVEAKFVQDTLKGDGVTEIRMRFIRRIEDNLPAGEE
UniProt O60784, whole entry, looked up: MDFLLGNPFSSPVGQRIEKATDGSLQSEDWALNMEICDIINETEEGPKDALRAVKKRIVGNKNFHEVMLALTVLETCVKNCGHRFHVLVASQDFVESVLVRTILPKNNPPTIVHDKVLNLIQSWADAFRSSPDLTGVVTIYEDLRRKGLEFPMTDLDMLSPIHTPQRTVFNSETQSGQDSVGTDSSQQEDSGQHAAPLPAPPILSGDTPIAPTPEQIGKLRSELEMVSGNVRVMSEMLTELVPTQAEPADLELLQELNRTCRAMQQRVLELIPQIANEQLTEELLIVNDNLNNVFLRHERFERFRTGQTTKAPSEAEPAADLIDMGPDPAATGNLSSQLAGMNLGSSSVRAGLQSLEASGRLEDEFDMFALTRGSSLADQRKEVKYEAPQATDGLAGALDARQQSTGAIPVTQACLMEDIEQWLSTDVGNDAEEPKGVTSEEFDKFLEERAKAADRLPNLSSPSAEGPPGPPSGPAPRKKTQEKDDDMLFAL
UniProt Q86SZ2: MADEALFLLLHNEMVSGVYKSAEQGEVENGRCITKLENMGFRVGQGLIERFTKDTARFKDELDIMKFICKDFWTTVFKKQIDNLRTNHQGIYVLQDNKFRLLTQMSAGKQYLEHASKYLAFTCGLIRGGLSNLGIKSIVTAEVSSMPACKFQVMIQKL

How the values were obtained:
Test in all cases: log2 fold change, soluble protein after heating vs DMSO (PISA); higher = thermal stabilisation; K562 cells, 10 uM, 30 min; active = over 0.2 and 3.5 SD of the protein, either way, in both replicates (recomputed)
saracatinib = compound: CN1CCN(CCOc2cc(OC3CCOCC3)c3c(Nc4c(Cl)ccc5c4OCO5)ncnc3c2)CC1 [saracatinib]
Outline: (§1)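 Values are thermal stability changes relative to control samples and are taken from duplicates. They are stated as log2 fold changes. Before quantification by TMTpro 16plex LC-MS/MS with equalised channel sums, K562 cells at 2×10^6 cells/mL were treated with 10 μM compound for 30 min, heated in aliquots for 3 min across 48°C-58°C, pooled, extracted in PBS with 0.5% NP-40 at 4°C, and centrifuged at 21,000xg for 90 min to give the soluble supernatant.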

sotrastaurin = compound: CN1CCN(c2nc(C3=C(c4c[nH]c5ccccc45)C(=O)NC3=O)c3ccccc3n2)CC1 [sotrastaurin]
Outline: as §1

alvocidib = compound: CN1CC[C@H](c2c(O)cc(O)c3c(=O)cc(-c4ccccc4Cl)oc23)[C@H](O)C1 [alvocidib]
Outline: as §1

rucaparib = compound: CNCc1ccc(-c2[nH]c3cc(F)cc4c3c2CCNC4=O)cc1 [rucaparib]
Outline: as §1

[1] = compound: CNc1nc(-c2ccc3c(N)n[nH]c3c2)cc(N2C[C@@H](C(=O)NC3CCCCC3)CC[C@H]2C)n1
Outline: as §1

encorafenib = compound: COC(=O)N[C@@H](C)CNc1nccc(-c2cn(C(C)C)nc2-c2cc(Cl)cc(NS(C)(=O)=O)c2F)n1 [encorafenib]
Outline: as §1

[2] = compound: CNC(=O)C1=CC=CC=C1NC2=NC(=NC=C2Cl)NC3=C(C=C(C=C3)N4CCOCC4)OC
Outline: as §1

defactinib = compound: CNC(=O)c1ccc(Nc2ncc(C(F)(F)F)c(NCc3nccnc3N(C)S(C)(=O)=O)n2)cc1 [defactinib]
Outline: as §1

[3] = compound: COC(=O)[C@H](CCSC)NC(=O)C1=C(C=C(C=C1)NC[C@H](CS)N)C2=CC=CC=C2
Outline: as §1

Tubastatin A = compound: CN1CCc2c(c3ccccc3n2Cc2ccc(C(=O)NO)cc2)C1 [Tubastatin A]
Outline: as §1

Measured: log2 fold change

TOR1AIP1 (UniProt Q5JTV8)
inactive: saracatinib 0.138 | sotrastaurin 0.139 | alvocidib 0.009 | rucaparib 0.06 | [1] -0.088 | encorafenib -0.129

TRIM38 (UniProt O00635)
inactive: saracatinib 0.107 | sotrastaurin -0.144 | alvocidib 0.032 | [2] -0.181 | defactinib 0.014 | [1] -0.208 | [3] 0.073

TNPO3 (UniProt Q9Y5L0)
inactive: saracatinib 0.034 | sotrastaurin -0.075 | Tubastatin A -0.03 | [2] -0.011 | defactinib -0.067 | rucaparib 0 | [1] -0.013 | encorafenib 0.032 | [3] -0.003

TRMT61A (UniProt Q96FX7)
inactive: saracatinib -0.018 | sotrastaurin -0.002 | Tubastatin A 0.08 | [2] -0.038 | defactinib 0.138 | rucaparib 0.286 | [1] 0.02 | encorafenib -0.03 | [3] 0.039

TPCN1 isoform 3 (UniProt Q9ULQ1)
inactive: saracatinib 0.066 | sotrastaurin 0.025 | alvocidib 0.075 | Tubastatin A 0.012 | [2] 0.03 | defactinib -0.105 | [1] -0.007 | [3] -0.054

TOMM7 (UniProt Q9P0U1)
inactive: saracatinib -0.008 | sotrastaurin 0.048 | Tubastatin A -0.005 | [2] -0.023 | defactinib -0.047 | rucaparib -0.02 | [1] -0.002 | encorafenib -0.035 | [3] -0.046

TP53BP2 isoform 3 (UniProt Q13625)
inactive: saracatinib -0.031 | sotrastaurin -0.055 | alvocidib -0.071 | Tubastatin A 0.055 | [2] 0.017 | defactinib -0.115 | [1] -0.019 | [3] -0.028

TOX4 (UniProt O94842)
inactive: saracatinib 0.002 | sotrastaurin -0.004 | alvocidib 0.342 | Tubastatin A -0.043 | [2] -0.029 | defactinib 0.28 | rucaparib 0.21 | [1] 0.009 | encorafenib -0.005 | [3] 0.089

TNRC6B (UniProt Q9UPQ9)
inactive: saracatinib 0.093 | sotrastaurin -0.152 | alvocidib 0.011 | Tubastatin A -0.061 | [2] -0.101 | [1] -0.092

TRAPPC13 isoform 5 (UniProt A5PLN9)
inactive: saracatinib 0.045 | sotrastaurin -0.061 | Tubastatin A 0.026 | [2] 0.04 | defactinib -0.051 | rucaparib 0.072 | [1] -0.045 | encorafenib 0.217 | [3] -0.099

TRPM7 (UniProt Q96QT4)
inactive: saracatinib 0.036 | alvocidib 0.003 | Tubastatin A 0.036 | [2] 0.07 | defactinib -0.119 | rucaparib 0.173 | [1] 0.117 | encorafenib -0.025 | [3] -0.108

TRPC4AP (UniProt Q8TEL6)
inactive: saracatinib -0.052 | sotrastaurin -0.063 | Tubastatin A 0.033 | [2] -0.097 | defactinib -0.016 | [1] 0.05 | [3] 0.006

TRIQK (UniProt Q629K1)
inactive: saracatinib -0.014 | sotrastaurin -0.112 | Tubastatin A -0.094 | [1] -0.045

TSC1 (UniProt Q92574)
inactive: saracatinib -0.066 | alvocidib -0.128 | Tubastatin A 0.193 | [2] 0.147 | defactinib -0.267 | rucaparib 0.17 | [1] 0.036 | encorafenib 0.017 | [3] 0.054

TRAPPC11 (UniProt Q7Z392)
inactive: saracatinib -0.043 | sotrastaurin -0.041 | Tubastatin A 0 | [2] -0.028 | defactinib -0.075 | rucaparib 0.051 | [1] -0.027 | encorafenib 0.035 | [3] -0.031

TRIM5 (UniProt Q9C035)
inactive: saracatinib -0.429 | sotrastaurin 0.103 | Tubastatin A -0.102 | [2] -0.093 | defactinib -0.108 | [1] -0.017 | [3] 0.019

TNNC2 (UniProt P02585)
inactive: saracatinib 0.007 | sotrastaurin 0.095 | Tubastatin A -0.139 | [2] -0.035 | defactinib 0.012 | rucaparib -0.025 | [1] -0.056 | encorafenib -0.049 | [3] 0.037

TNIK isoform 3 (UniProt Q9UKE5)
inactive: saracatinib -0.081 | alvocidib -0.114 | Tubastatin A 0.023 | [2] 0.006 | defactinib -0.074 | rucaparib -0.091 | [1] 0.015 | encorafenib 0.005 | [3] 0.047

TOP2A isoform 4 (UniProt P11388)
inactive: saracatinib -0.168 | sotrastaurin 0.006 | Tubastatin A 0.103 | [2] 0.102 | defactinib 0.438 | rucaparib 0.434 | [1] 0.273 | encorafenib 0.288 | [3] -0.086

TNPO2 (UniProt O14787)
inactive: saracatinib 0.066 | sotrastaurin -0.055 | Tubastatin A 0.03 | [2] 0.013 | defactinib -0.188 | rucaparib -0.051 | [1] 0.054 | encorafenib 0.133 | [3] -0.079

TRMT10C (UniProt Q7L0Y3)
inactive: saracatinib -0.129 | sotrastaurin -0.013 | Tubastatin A -0.064 | [2] -0.024 | defactinib -0.055 | rucaparib -0.011 | [1] 0.042 | encorafenib 0.041 | [3] -0.056

TRMT2B (UniProt Q96GJ1)
inactive: saracatinib -0.029 | alvocidib 0.019 | Tubastatin A 0.115 | [2] 0.064 | defactinib -0.013 | rucaparib -0.054 | [1] -0.018 | encorafenib -0.023 | [3] -0.04

TRIP10 isoform 2 (UniProt Q15642)
inactive: saracatinib 0.021 | sotrastaurin 0.151 | Tubastatin A 0.051 | [2] -0.258 | defactinib -0.196 | rucaparib 0.071 | [1] -0.081 | encorafenib -0.147 | [3] -0.246

Quoted at random: 2 records from the list.
TOP2A isoform 4 (UniProt P11388)
inactive: saracatinib -0.168 | sotrastaurin 0.006 | Tubastatin A 0.103 | [2] 0.102 | defactinib 0.438 | rucaparib 0.434 | [1] 0.273 | encorafenib 0.288 | [3] -0.086

TNPO2 (UniProt O14787)
inactive: saracatinib 0.066 | sotrastaurin -0.055 | Tubastatin A 0.03 | [2] 0.013 | defactinib -0.188 | rucaparib -0.051 | [1] 0.054 | encorafenib 0.133 | [3] -0.079

Further entries.

TRAPPC8 (UniProt Q9Y2L5)
inactive: saracatinib -0.017 | sotrastaurin -0.044 | Tubastatin A -0.004 | [2] 0.014 | defactinib -0.104 | rucaparib 0.074 | [1] 0.008 | encorafenib 0.032 | [3] -0.032

TRAPPC3 (UniProt O43617)
inactive: saracatinib 0.063 | sotrastaurin 0.001 | Tubastatin A -0.026 | [2] 0 | defactinib -0.072 | rucaparib -0.056 | [1] -0.014 | encorafenib 0.015 | [3] 0.013

TP53BP1 isoform 2 (UniProt Q12888)
inactive: saracatinib 0.01 | sotrastaurin -0.112 | Tubastatin A 0.116 | [2] 0.061 | defactinib -0.073 | rucaparib 0.025 | [1] -0.022 | encorafenib 0.059 | [3] 0.036

TRIM24 (UniProt O15164)
inactive: saracatinib -0.094 | sotrastaurin -0.152 | Tubastatin A 0.09 | [2] -0.12 | defactinib -0.01 | rucaparib 0.097 | [1] -0.061 | encorafenib 0.127 | [3] 0.01

TOM1 isoform 2 (UniProt O60784)
inactive: saracatinib 0.033 | sotrastaurin -0.132 | Tubastatin A 0.132 | [2] -0.025 | defactinib -0.087 | rucaparib -0.024 | [1] -0.043 | encorafenib 0.009 | [3] 0.089

TRAPPC6B (UniProt Q86SZ2)
inactive: saracatinib 0.035 | sotrastaurin -0.068 | Tubastatin A 0.031 | [2] -0.034 | defactinib -0.046 | rucaparib 0.012 | [1] 0.008 | encorafenib -0.02 | [3] 0.022

TOMM20 (UniProt Q15388)
inactive: saracatinib 0.012 | sotrastaurin -0.005 | Tubastatin A -0.031 | [2] -0.028 | defactinib -0.011 | rucaparib -0.009 | [1] -0.034 | encorafenib -0.131 | [3] 0.033

TRUB2 (UniProt O95900)
inactive: saracatinib -0.037 | sotrastaurin 0.083 | [2] 0.04 | [1] -0.064

TOM1L1 (UniProt O75674)
inactive: saracatinib -0.003 | sotrastaurin 0.019 | Tubastatin A -0.066 | [2] -0.043 | defactinib -0.042 | rucaparib -0.02 | [1] -0.026 | encorafenib -0.042 | [3] -0.041
